# Where “and” joins values, the source holds several entries; their conditions need not be identical. Equal entries are not always repeated. Out of some 580,000 compounds screened, about 6,100 (1.1%) were called active. Inconclusive means that the source gave no clear call. Such entries were picked first, then a sample of the others. Calls follow the shape of the dose curve; as a rule, active = well fitted inhibition curve with a large enough effect; inconclusive = small, poorly fitted or top-dose-only effect, or another doubt; inactive = no such curve, though single readings can be large or run the other way. Potencies of inconclusive entries are doubtful fits and often do not repeat.
# Sequences of proteins named here, by UniProt entry; tags and fusion partners are left off. A change or cut given only in a name is not applied to a line headed by its entry.
# UniProt P18054: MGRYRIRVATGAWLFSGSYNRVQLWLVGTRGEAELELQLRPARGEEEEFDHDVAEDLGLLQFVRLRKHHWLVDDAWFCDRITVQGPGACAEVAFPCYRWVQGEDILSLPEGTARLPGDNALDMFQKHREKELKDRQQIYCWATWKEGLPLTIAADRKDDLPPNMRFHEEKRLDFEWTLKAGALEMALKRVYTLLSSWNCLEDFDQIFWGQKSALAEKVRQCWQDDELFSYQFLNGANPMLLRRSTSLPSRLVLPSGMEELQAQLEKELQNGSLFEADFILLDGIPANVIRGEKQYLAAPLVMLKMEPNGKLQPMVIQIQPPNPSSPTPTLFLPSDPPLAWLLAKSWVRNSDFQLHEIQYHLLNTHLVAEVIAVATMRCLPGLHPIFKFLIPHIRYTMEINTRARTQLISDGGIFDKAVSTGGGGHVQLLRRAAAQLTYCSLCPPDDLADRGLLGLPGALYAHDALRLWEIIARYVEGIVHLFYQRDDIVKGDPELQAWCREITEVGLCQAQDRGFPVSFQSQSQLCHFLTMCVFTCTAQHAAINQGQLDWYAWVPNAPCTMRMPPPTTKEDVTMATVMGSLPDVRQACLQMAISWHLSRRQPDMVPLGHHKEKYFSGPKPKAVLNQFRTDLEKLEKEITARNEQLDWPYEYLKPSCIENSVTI
# Target: Polyunsaturated fatty acid lipoxygenase ALOX12 (Homo sapiens) (UniProt P18054)
# Test: Primary qHTS assay for inhibitors of human arachidonate 12S-lipoxygenase (ALOX12): Round 2
# Conditions: purified 12hLO, xylenol orange hydroperoxide absorbance; series mostly up to 108 µM
# In short: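 Purified human 12hLO at 150 nM in 25 mM Hepes, 0.01% Triton X-100, pH 7.0, preincubated 15 min at room temperature with compound. Reaction started with 40 uM arachidonic acid, 30 min at room temperature. Hydroperoxide measured by Fe-xylenol orange, 573/405 nm absorbance ratio.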
# Potency is read from the fitted curve at half-maximal effect.
row,SMILES,Potency
1,COC(=O)c1cc(C#N)c(NCc2ccccc2)nc1C,inactive
2,COc1cc(/C=C2\NC(=O)NC2=O)cc(Br)c1OC,inactive
3,CCOC(=O)N1CCN(C(=O)c2cccc(OC)c2O)CC1,inactive
4,Cc1cccc(Oc2ccc3c(c2)Oc2ccccc2NC3=O)c1,"inconclusive: 50.1 µM [inhibitor, partial curve, poor fit]"
5,O=C(/C=C/c1ccccc1OC(=O)c1cccs1)c1cc2ccccc2o1,"inconclusive: 11.2 µM [inhibitor, full curve, poor fit]"
6,CN(Cc1ccccc1C(F)(F)F)CC1CCCCC1,inactive
7,Clc1cccc(N/N=C/c2ccc(N3CCOCC3)cc2)c1,"inconclusive: 0.398 µM [inhibitor, full curve, poor fit]"
8,CC(CO)NS(=O)(=O)c1cc(Cl)ccc1F (stereo not given),"inconclusive: 5.62 µM [inhibitor, full curve, poor fit]"
9,Brc1ccccc1-c1nnc(CSc2nncn2-c2ccccc2)o1,inactive
10,CC12CCCC(C(N)=O)(CCC1)C2,"inconclusive: 35.5 µM [inhibitor, partial curve, poor fit]"
11,O=C(Nc1ccc(OC2CCCC2)cc1)c1cccnc1,"inconclusive: 28.2 µM [inhibitor, partial curve, poor fit]"
12,CC1CCC/C(=N/NC(=S)Nc2ccccc2)C1 (stereo not given),active: 28.2 µM
13,COc1ccc(NC(C)=O)cc1NC(=O)CSc1nc2ncccc2[nH]1,inactive
14,CCOC(=O)c1sc2cccc(F)c2c1COC(=O)c1cc(C)oc1C,"inconclusive: 50.1 µM [inhibitor, partial curve, poor fit]"
15,CN(C)S(=O)(=O)c1cccc(NC(=S)N/N=C/c2ccc(O)c(O)c2O)c1,"inconclusive: 1.41 µM [inhibitor, full curve, poor fit]"
16,O=C(CCc1ccccc1)NCCc1ccc(F)cc1,"inconclusive: 89.1 µM [inhibitor, single point]"
17,O=C(Cc1ccc(Cl)cc1)Nc1nc2c(s1)CCCC2,"inconclusive: 70.8 µM [inhibitor, single point]"
18,CCCCNC(=O)c1ccccc1Cl,"inconclusive: 35.5 µM [inhibitor, single point]"
19,CC(Sc1ccc2c(c1)OCCCO2)C(=O)c1c[nH]c2ccccc12 (stereo not given),"inconclusive: 22.4 µM [inhibitor, partial curve, poor fit]"
20,CN(C)CC/C=C1/c2ccc(F)cc2Sc2ccc(Cl)cc21,"inconclusive: 79.4 µM [inhibitor, partial curve, poor fit]"
21,O=C1NC(c2ccccc2)Nc2c1sc(=S)n2-c1ccccc1 (stereo not given),active: 44.7 µM
22,COc1ccc(CCN(C)C(=O)CN2C(=O)c3ccccc3S2(=O)=O)cc1OC,inactive

row,SMILES,Potency
1,C[C@@H]1ON(C)[C@H]2C[C@H]3c4[nH]c5ccccc5c4CCN3C(=O)[C@@H]12,"inconclusive: 112 µM [inhibitor, single point]"
2,CCCCCCCCN1C(=O)[C@@H](CC(=O)N2CCSCC2)C[C@@]2(C(=O)OC)C1=C[C@H](C(C)(C)C)O[C@@H]2C,inactive
3,COc1ccc(NC(=O)CSCC(=O)Nc2cccc(S(=O)(=O)N3CCCCCC3)c2)cc1,"inconclusive: 100 µM [inhibitor, partial curve, poor fit]"
4,COc1ccc(-c2[nH]nc3ncc(-c4cncnc4)nc23)cc1F,"inconclusive: 28.2 µM [inhibitor, partial curve, poor fit]"
5,O=C(N/N=C/c1ccc(F)cc1)c1cc(-c2ccccn2)nc2ccccc12,inactive
6,CS(=O)(=O)c1cccc(C(=O)Nc2ccc(-c3ccccc3)cc2)c1,"inconclusive: 158 µM [inhibitor, single point]"
7,O=c1[nH]cnc(O)c1C(c1ccc([N+](=O)[O-])cc1)c1c(O)nc[nH]c1=O,"inconclusive: 17.8 µM [inhibitor, full curve]"
8,COC(=O)c1cc(=O)nc(NN=Cc2ccccc2O)s1,"inconclusive: 50.1 µM [inhibitor, partial curve, poor fit]"
9,COc1ccc(C=C2OC(=O)C(C(C)=O)=C2O)cc1,active: 44.7 µM
10,c1ccc2[nH]c(-c3cnco3)cc2c1,"inconclusive: 3.16 µM [inhibitor, full curve, poor fit]"
11,COc1ccc(CN2C(=O)c3oc4ccccc4c(=O)c3C2c2ccc(O)c(OC)c2)cc1 (stereo not given),"inconclusive: 89.1 µM [inhibitor, partial curve, poor fit] and inconclusive: 50.1 µM [inhibitor, single point]"
12,CC(C)c1ccccc1NC(=S)NC(C)c1ccccc1 (stereo not given),"inconclusive: 44.7 µM [inhibitor, partial curve, poor fit]"
13,O=[N+]([O-])c1ccc(N/N=C/c2cccc(O)c2O)cc1,"inconclusive: 25.1 µM [inhibitor, partial curve, poor fit]"
14,O=C(NCc1nnc2cc(-c3nc(C4CC4)no3)ccn12)c1ccc(F)c(Cl)c1,inactive
15,CCOC(=O)c1cnc2c(Cl)cc(Cl)cc2c1NCCCN1CCOCC1,inactive
16,CC12CCC(C(=O)N3CCN(C(c4ccccc4)c4ccccc4)CC3)(OC1=O)C2(C)C (stereo not given),"inconclusive: 20 µM [inhibitor, partial curve, poor fit]"
17,Cc1noc2ncnc(Oc3ccc(F)cc3)c12,inactive
18,O=C(OCC(=O)N1CCN(c2ccccc2)CC1)c1cccc(Cl)c1,"inconclusive: 50.1 µM [inhibitor, partial curve, poor fit]"
19,CCC1=C(OC(=O)N(CC)CC)N2C(=O)OC(=NCC3CC3)[C@]2(C)[C@H]2C1=CC[C@H]1C(=O)N(CC(=O)OC)C(=O)[C@H]12,"inconclusive: 112 µM [inhibitor, single point]"
20,O=C(Nc1nncs1)c1cc2c(s1)CCC2,"inconclusive: 89.1 µM [inhibitor, single point]"
21,COCC(=O)N[C@@H]1CN(Cc2sccc2C)CC[C@@H]1c1n[nH]c(C)n1,inactive
22,CCCCn1c(N)c(N(CCOC)C(=O)COC(=O)COc2cc(C)ccc2Cl)c(=O)[nH]c1=O,"inconclusive: 126 µM [inhibitor, partial curve, poor fit]"

# Gathered by group: the compounds so far with a furan ring, fused or not.
row,SMILES,Potency
5,O=C(/C=C/c1ccccc1OC(=O)c1cccs1)c1cc2ccccc2o1,"inconclusive: 11.2 µM [inhibitor, full curve, poor fit]"
14,CCOC(=O)c1sc2cccc(F)c2c1COC(=O)c1cc(C)oc1C,"inconclusive: 50.1 µM [inhibitor, partial curve, poor fit]"

# Next part.

row,SMILES,Potency
1,COc1ccc(/C=C/C(=O)Nc2cccc(S(=O)(=O)NC3=NCCCCC3)c2)cc1OC,inactive
2,Cn1c(COc2ccccc2Cl)nnc1SCCOc1ccc(Cl)cc1,"inconclusive: 35.5 µM [inhibitor, partial curve, poor fit]"
3,O=C(NCc1n[nH]c(=S)n1-c1ccc(Cl)c(Cl)c1)c1ccc(S(=O)(=O)N2CCCCC2)cc1,"inconclusive: 79.4 µM [inhibitor, partial curve, poor fit]"
4,Cc1csc(=O)n1CCC(=O)OCC(=O)c1ccc(Br)cc1,"inconclusive: 79.4 µM [inhibitor, partial curve, poor fit]"
5,CNC(=S)NCc1ccc(C(=O)OC)cc1,"inconclusive: 126 µM [inhibitor, single point]"
6,CC(C)(C)C1CCc2c(sc3c2C(c2ccc(O)cc2)CC(=O)N3)C1 (stereo not given),"inconclusive: 50.1 µM [inhibitor, partial curve, poor fit]"
7,NC(=O)CC(NC(=S)NCc1ccccc1)C(=O)O (stereo not given),"inconclusive: 89.1 µM [inhibitor, single point]"
8,CCCCSCCCNC(=O)C1CCC(CNS(=O)(=O)c2c(C)cc(C)cc2C)CC1 (stereo not given),"inconclusive: 5.01 µM [inhibitor, full curve, poor fit]"
9,CC(C)CC(NC(=O)C1CCCCC1)C(=O)NC(C)c1ccccc1 (stereo not given),inactive
10,CC1=C(C(=O)OC(C)(C)C)C(c2ccccc2Cl)NC(=S)N1 (stereo not given),"inconclusive: 31.6 µM [inhibitor, partial curve, poor fit]"
11,O=C1CC(c2cccc(Cl)c2)c2cc3c(cc2N1)CCC3 (stereo not given),"inconclusive: 89.1 µM [inhibitor, partial curve, poor fit]"
12,CCN(CC(=O)NC1CCS(=O)(=O)C1)S(=O)(=O)c1ccc(Br)cc1 (stereo not given),"inconclusive: 35.5 µM [inhibitor, single point]"
13,O=C1CC2(C(=O)Nc3c(Cl)cccc32)c2cnn(Cc3ccccc3Cl)c2N1 (stereo not given),"inconclusive: 35.5 µM [inhibitor, partial curve, poor fit]"
14,CN(C)S(=O)(=O)N(CC(=O)N1CCN(c2ccccc2F)CC1)c1ccccc1,"inconclusive: 89.1 µM [inhibitor, single point]"
15,COc1ccc(C2CC(=O)c3ccccc3O2)cc1 (stereo not given),"inconclusive: 44.7 µM [inhibitor, partial curve, poor fit]"
16,CN(C)C(=O)CSc1nc2ccccc2c(=O)[nH]1,"inconclusive: 79.4 µM [inhibitor, partial curve, poor fit]"
17,CCOC(=O)C1=C(O)C(=O)N(c2ccc(S(N)(=O)=O)cc2)C1c1ccc(Cl)cc1 (stereo not given),"inconclusive: 50.1 µM [inhibitor, partial curve, poor fit]"
18,N#CCN(C(=O)COC(=O)CCCNC(=O)c1ccc(Cl)cc1)c1ccccc1,inactive
19,O=C(CSc1nc2c([nH]c3ccccc32)c(=O)n1-c1ccccc1)N1CCCCCC1,"inconclusive: 56.2 µM [inhibitor, partial curve, poor fit]"
20,CCN(CC)C(=O)[C@H]1C[C@H](CC(=O)NCCc2ccccn2)C(=O)N2CCc3c([nH]c4cc(-c5ccco5)ccc34)[C@]12C,"inconclusive: 100 µM [inhibitor, single point]"
21,CN(C)/C=C/C(=O)c1ccc(Cl)cc1,active: 15.8 µM

# Compounds listed so far with a nitro group on carbon:
row,SMILES,Potency
7,O=c1[nH]cnc(O)c1C(c1ccc([N+](=O)[O-])cc1)c1c(O)nc[nH]c1=O,"inconclusive: 17.8 µM [inhibitor, full curve]"
13,O=[N+]([O-])c1ccc(N/N=C/c2cccc(O)c2O)cc1,"inconclusive: 25.1 µM [inhibitor, partial curve, poor fit]"

# Source: PubChem BioAssay AID1671190 (National Center for Advancing Translational Sciences (NCATS), 2021)
